Some of these results come from one statement about several compounds together. For at least one compound, name, drawing or mass did not settle the structure.
Tests used:
Thrips tabaci = assay: Thrips tabaci, sprayed sunflower leaf discs; assay type: in vivo, Thrips tabaci (onion thrips); settings: sunflower leaf discs sprayed at 200 ppm; mixed ages; 7 days incubation
Spodoptera littoralis = assay: Spodoptera littoralis, sprayed cotton leaf discs, L1 larvae; assay type: in vivo, Spodoptera littoralis (Egyptian cotton leafworm); settings: cotton leaf discs sprayed at 200 ppm, 3 days after treatment
Plutella xylostella = assay: Plutella xylostella, L2 larvae on artificial diet; assay type: in vivo, Plutella xylostella (diamond back moth); settings: 200 ppm (concentration in well 18 ppm), 6 days incubation
Tetranychus urticae = assay: Tetranychus urticae, sprayed bean leaf discs, mixed ages; assay type: in vivo, Tetranychus urticae (two-spotted spider mite); settings: bean leaf discs sprayed at 200 ppm, 8 days
Heliothis virescens = assay: Heliothis virescens, eggs on artificial diet; assay type: in vivo, Heliothis virescens (tobacco budworm); settings: 200 ppm (concentration in well 18 ppm); eggs 0-24 h old; 4 days incubation

Row | Structure (SMILES) | control of Thrips tabaci (Thrips tabaci) | control of Spodoptera littoralis (Spodoptera littoralis) | control of Plutella xylostella (Plutella xylostella) | control of Tetranychus urticae (Tetranychus urticae) | control of Heliothis virescens (Heliothis virescens)
1 | Cc1cc(C2=CC(c3cc(Cl)cc(Cl)c3)(C(F)(F)F)ON2C)ccc1C(=O)Nc1cccc(F)c1 (stereo not shown) [Compound A15] | at least 80% | at least 80% | at least 80% | – | –
2 | Cc1cc(C2=CC(c3cc(Cl)cc(Cl)c3)(C(F)(F)F)ON2C)ccc1C(=O)NC1(C)CSC1 (stereo not shown) [Compound A19] | at least 80% | at least 80% | at least 80% | at least 80% | –
3 | Cc1cc(C2=CC(c3cc(Cl)cc(Cl)c3)(C(F)(F)F)ON2Cc2ccccc2)ccc1C(=O)NC1CCC1 (stereo not shown) [Compound A54] | at least 80% | at least 80% | at least 80% | at least 80% | –
4 | CSc1ccc(C(=O)NCc2ccc(C3=CC(c4cc(Cl)cc(Cl)c4)(C(F)(F)F)ON3C)cc2C)cc1 (stereo not shown) [Compound B27] | – | – | – | – | at least 80%
5 | Cc1cc(C2=CC(c3cc(Cl)cc(Cl)c3)(C(F)(F)F)ON2C)ccc1C(=O)NCC1CCCO1 (stereo not shown) [Compound A8] | at least 80% | – | – | – | –
6 | Cc1cc(C2=CC(c3cc(Cl)cc(Cl)c3)(C(F)(F)F)ON2Cc2ccccc2)ccc1C(=O)NCC(F)(F)F (stereo not shown) [Compound A31] | – | at least 80% | at least 80% | – | at least 80%
7 | Cc1cc(C2=CC(c3cc(Cl)cc(Cl)c3)(C(F)(F)F)ON2C)ccc1C(=O)NCCC(F)(F)F (stereo not shown) [Compound A6] | at least 80% | at least 80% | at least 80% | – | –
8 | CN=C1SC(CC(=O)NCc2ccc(C3=CC(c4cc(Cl)cc(Cl)c4)(C(F)(F)F)ON3C)cc2C)C(=O)N1C (stereo not shown) [Compound B15] | – | – | – | – | at least 80%
9 | Cc1cc(C2=CC(c3cc(Cl)cc(Cl)c3)(C(F)(F)F)ON2C)ccc1C(=O)NC(C)c1ccccc1 (stereo not shown) [Compound A11] | at least 80% | at least 80% | at least 80% | – | –
10 | Cc1cc(C2=CC(c3cc(Cl)cc(Cl)c3)(C(F)(F)F)ON2C)ccc1CNC(=O)c1ncccc1C (racemic) [Compound B36] | – | at least 80% | – | – | –
11 | Cc1cc(C2=CC(c3cc(Cl)cc(Cl)c3)(C(F)(F)F)ON2C)ccc1CNC(=O)Cc1ccccc1 (stereo not shown) [Compound B14] | – | – | – | – | at least 80%
12 | Cc1cc(C2=CC(c3cc(Cl)cc(Cl)c3)(C(F)(F)F)ON2C)ccc1C(=O)NCC(F)(F)F (stereo not shown) [Compound A1] | at least 80% | – | at least 80% | – | –
13 | Cc1cc(C2=CC(c3cc(Cl)cc(Cl)c3)(C(F)(F)F)ON2Cc2ccccc2)ccc1C(=O)NCC[S+](C)[O-] (stereo not shown) [Compound A55] | at least 80% | at least 80% | at least 80% | at least 80% | –
14 | COc1cscc1C(=O)NCc1ccc(C2=CC(c3cc(Cl)cc(Cl)c3)(C(F)(F)F)ON2C)cc1C (racemic) [Compound B38] | – | – | – | at least 80% | –
15 | CCCCNC(=O)c1ccc(C2=CC(c3cc(Cl)cc(Cl)c3)(C(F)(F)F)ON2Cc2ccccc2)cc1C (stereo not shown) [Compound A33] | – | – | at least 80% | – | –
16 | COCC(C)NC(=O)c1ccc(C2=CC(c3cc(Cl)cc(Cl)c3)(C(F)(F)F)ON2Cc2ccccc2)cc1C (stereo not shown) [Compound A34] | – | – | at least 80% | at least 80% | –

Row | Structure (SMILES) | control of Thrips tabaci (Thrips tabaci) | control of Spodoptera littoralis (Spodoptera littoralis) | control of Plutella xylostella (Plutella xylostella) | control of Tetranychus urticae (Tetranychus urticae) | control of Heliothis virescens (Heliothis virescens)
17 | Cc1cc(C2=CC(c3cc(Cl)cc(Cl)c3)(C(F)(F)F)ON2C)ccc1CNC(=O)c1ccc2c(c1)OCCCO2 (racemic) [Compound B31] | – | – | – | – | at least 80%
18 | Cc1cc(C2=CC(c3cc(Cl)cc(Cl)c3)(C(F)(F)F)ON2C)ccc1C(N)=O (stereo not shown) [Compound A25] | – | – | at least 80% | – | –
19 | CCC(=O)NCc1ccc(C2=CC(c3cc(Cl)cc(Cl)c3)(C(F)(F)F)ON2C)cc1C (stereo not shown) [Compound B1] | at least 80% | at least 80% | at least 80% | – | at least 80%
20 | Cc1csc(NC(=O)c2ccc(C3=CC(c4cc(Cl)cc(Cl)c4)(C(F)(F)F)ON3Cc3ccccc3)cc2C)n1 (stereo not shown) [Compound A48] | – | – | – | – | at least 80%
21 | Cc1cc(C2=CC(c3cc(Cl)cc(Cl)c3)(C(F)(F)F)ON2Cc2ccccc2)ccc1C(=O)NCCC(F)(F)F (stereo not shown) [Compound A36] | – | at least 80% | – | – | –
22 | COc1ccc(C(=O)NCc2ccc(C3=CC(c4cc(Cl)cc(Cl)c4)(C(F)(F)F)ON3C)cc2C)cc1 (stereo not shown) [Compound B29] | – | – | – | at least 80% | at least 80%
23 | CCC(Br)C(=O)NCc1ccc(C2=CC(c3cc(Cl)cc(Cl)c3)(C(F)(F)F)ON2C)cc1C (stereo not shown) [Compound B5] | – | at least 80% | – | – | –
24 | Cc1cc(C2=CC(c3cc(Cl)cc(Cl)c3)(C(F)(F)F)ON2C)ccc1CNC(=O)c1cnnc2ccccc12 (racemic) [Compound B37] | – | – | at least 80% | – | at least 80%
25 | CSCC(C)(C)NC(=O)c1ccc(C2=CC(c3cc(Cl)cc(Cl)c3)(C(F)(F)F)ON2C)cc1C (stereo not shown) [Compound A20] | at least 80% | at least 80% | – | at least 80% | –
26 | Cc1cc(C2=CC(c3cc(Cl)cc(Cl)c3)(C(F)(F)F)ON2C)ccc1C(=O)NCc1ccccc1 (stereo not shown) [Compound A9] | at least 80% | at least 80% | at least 80% | at least 80% | –
27 | Cc1cc(C2=CC(c3cc(Cl)cc(Cl)c3)(C(F)(F)F)ON2C)ccc1CNC(=O)c1cccc(F)c1F (stereo not shown) [Compound B24] | – | at least 80% | at least 80% | – | at least 80%
28 | Cc1cc(C2=CC(c3cc(Cl)cc(Cl)c3)(C(F)(F)F)ON2C)ccc1C(=O)NC1CCC1 (stereo not shown) [Compound A24] | at least 80% | at least 80% | at least 80% | – | –
29 | COc1ccc(CNC(=O)c2ccc(C3=CC(c4cc(Cl)cc(Cl)c4)(C(F)(F)F)ON3Cc3ccccc3)cc2C)cc1 (stereo not shown) [Compound A42] | – | at least 80% | at least 80% | at least 80% | at least 80%
30 | CCC(C)NC(=O)c1ccc(C2=CC(c3cc(Cl)cc(Cl)c3)(C(F)(F)F)ON2C)cc1C (stereo not shown) [Compound A7] | at least 80% | at least 80% | at least 80% | – | –
31 | Cc1cc(C2=CC(c3cc(Cl)cc(Cl)c3)(C(F)(F)F)ON2C)ccc1CNC(=O)Cc1cccs1 (stereo not shown) [Compound B12] | – | – | – | at least 80% | –
32 | COCC(C)NC(=O)c1ccc(C2=CC(c3cc(Cl)cc(Cl)c3)(C(F)(F)F)ON2C)cc1C (stereo not shown) [Compound A4] | at least 80% | at least 80% | at least 80% | at least 80% | –
